A short description of the data set: Dilution of Imidacloprid formulation in water, ocular inspection. Also noted: key: +: easily dissolved; −: permanent crystals; NS: Non soluble. The data set is classed as physicochemical. The following applies: NPM, 200 g/l diluted to 0.4 g/l. From the text:
Formulations containing 200 g/l of Imidacloprid was formulated together with 40 g/l of an alcohol ethoxylate (2-propylheptanol ethoxylated with 8 moles of EO per mole of alcohol) and diluted to a final volume of one liter with each one of the solvents N-formyl morpholine, N-acetyl morpholine and N-propionyl morpholine along with a co-solvent. The co-solvents used were dimethylsulfoxide (DMSO), propylene carbonate (PC), dimethylformamide (DMF) and ethyl lactate (EL). Ethyl lactate is a protic solvent and is included in the experiment for comparison. The amount of each co-solvent, in % by weight of the total weight of morpholine and co-solvent, is seen in table 2. The solutions was diluted in water to an end concentration of imidacloprid of 0.4 g/l and the dilution was judged by ocular inspection with the naked eye, and in the table below, the following is used: • +: easily dissolved, • −: permanent crystals. • NS: Non soluble

Each structure is given as a SMILES string. The source gives many values for each of these; only a part stands here.

Turning to `O=[N+]([O-])NC1=NCCN1Cc1ccc(Cl)nc1` [Imidacloprid], the “Crystallization upon dilution in water” value is, setting by setting: (0% EL) “−”; (5% EL) “NS”; (10% EL) “NS”; (15% EL) “NS”; (20% EL) “NS”; (25% EL) “NS”. The “Crystallization upon dilution in water” value runs as follows: (30% EL) “NS”; (50% EL) “NS”.
